The other results are listed elsewhere or left out.
Experiments:
Assay in all cases: log2 fold change, soluble protein after heating vs DMSO (PISA); higher = thermal stabilisation; K562 cells, 10 uM, 30 min; active = over 0.2 and 3.5 SD of the protein, either way, in both replicates (recomputed)
ZNF787 = ZNF787 (UniProt Q6DD87)
How it was run: (§1)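 K562 cells (2×10^6 cells/mL) were treated with 10 μM compound for 30 min, and aliquots were heated for 3 min over 48°C-58°C. Pooled aliquots were extracted in PBS with 0.5% NP-40 at 4°C, and the supernatant after 21,000xg for 90 min was measured by TMTpro 16plex LC-MS/MS with channel sums equalised. Reported thermal stability, relative to control samples and from duplicates, is a log2 fold change.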

The chains behind the UniProt entries cited, without tags or fusion partners. Where a name states a change or a piece, a line headed by the entry shows the natural chain unless it says otherwise.
UniProt Q96NB3: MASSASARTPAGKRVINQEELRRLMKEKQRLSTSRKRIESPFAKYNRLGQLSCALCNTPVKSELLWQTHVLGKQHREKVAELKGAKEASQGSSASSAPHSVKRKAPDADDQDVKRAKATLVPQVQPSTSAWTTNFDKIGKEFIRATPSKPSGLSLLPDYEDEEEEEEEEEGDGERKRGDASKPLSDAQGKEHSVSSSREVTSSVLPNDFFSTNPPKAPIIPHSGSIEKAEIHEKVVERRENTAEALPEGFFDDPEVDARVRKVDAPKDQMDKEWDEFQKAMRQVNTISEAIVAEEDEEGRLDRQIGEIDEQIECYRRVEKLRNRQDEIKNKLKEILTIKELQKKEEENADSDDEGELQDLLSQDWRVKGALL
UniProt O43257, whole entry, looked up: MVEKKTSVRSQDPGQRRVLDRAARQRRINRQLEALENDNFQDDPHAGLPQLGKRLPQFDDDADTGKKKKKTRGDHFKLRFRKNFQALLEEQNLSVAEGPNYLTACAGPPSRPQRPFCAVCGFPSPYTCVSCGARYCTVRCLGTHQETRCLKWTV
UniProt Q15649: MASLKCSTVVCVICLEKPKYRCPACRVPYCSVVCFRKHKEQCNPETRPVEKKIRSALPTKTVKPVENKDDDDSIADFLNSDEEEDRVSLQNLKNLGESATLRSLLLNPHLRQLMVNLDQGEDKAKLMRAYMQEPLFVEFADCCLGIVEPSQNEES
UniProt Q9NWK9: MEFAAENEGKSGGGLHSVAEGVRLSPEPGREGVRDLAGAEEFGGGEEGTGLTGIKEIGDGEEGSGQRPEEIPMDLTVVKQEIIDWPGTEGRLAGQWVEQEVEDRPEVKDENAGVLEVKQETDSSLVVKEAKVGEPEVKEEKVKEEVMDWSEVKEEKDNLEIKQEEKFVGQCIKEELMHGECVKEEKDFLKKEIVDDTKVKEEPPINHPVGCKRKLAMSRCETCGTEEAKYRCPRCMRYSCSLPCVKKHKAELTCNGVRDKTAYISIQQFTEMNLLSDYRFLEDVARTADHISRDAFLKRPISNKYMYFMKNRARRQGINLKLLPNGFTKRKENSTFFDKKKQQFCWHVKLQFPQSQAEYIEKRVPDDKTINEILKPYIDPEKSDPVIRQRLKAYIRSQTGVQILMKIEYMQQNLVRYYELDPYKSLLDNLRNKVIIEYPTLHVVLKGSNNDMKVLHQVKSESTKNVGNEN
UniProt Q9P1U0, whole entry, looked up: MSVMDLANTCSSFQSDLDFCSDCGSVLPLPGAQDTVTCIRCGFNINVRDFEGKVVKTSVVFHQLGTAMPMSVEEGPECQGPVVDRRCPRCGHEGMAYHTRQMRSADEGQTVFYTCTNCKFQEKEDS
UniProt O60232: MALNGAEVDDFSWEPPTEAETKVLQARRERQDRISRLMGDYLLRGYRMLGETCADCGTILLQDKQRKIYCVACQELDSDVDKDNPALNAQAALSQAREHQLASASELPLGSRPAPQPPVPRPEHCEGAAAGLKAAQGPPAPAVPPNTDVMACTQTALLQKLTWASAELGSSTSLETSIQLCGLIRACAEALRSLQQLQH
UniProt Q8ND25: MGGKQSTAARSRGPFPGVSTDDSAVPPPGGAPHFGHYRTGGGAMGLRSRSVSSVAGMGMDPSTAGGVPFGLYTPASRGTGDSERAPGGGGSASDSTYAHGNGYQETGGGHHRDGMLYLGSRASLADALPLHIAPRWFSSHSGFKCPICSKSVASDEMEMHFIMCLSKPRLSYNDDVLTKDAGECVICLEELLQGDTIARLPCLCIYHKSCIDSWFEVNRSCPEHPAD
UniProt Q8NHG8: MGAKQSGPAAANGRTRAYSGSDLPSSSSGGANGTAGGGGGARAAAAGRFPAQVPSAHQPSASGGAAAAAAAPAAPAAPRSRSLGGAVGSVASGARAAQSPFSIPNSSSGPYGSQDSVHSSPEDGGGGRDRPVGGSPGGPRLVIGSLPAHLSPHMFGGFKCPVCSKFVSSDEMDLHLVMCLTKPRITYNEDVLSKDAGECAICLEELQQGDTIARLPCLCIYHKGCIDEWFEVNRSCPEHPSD
UniProt O75312: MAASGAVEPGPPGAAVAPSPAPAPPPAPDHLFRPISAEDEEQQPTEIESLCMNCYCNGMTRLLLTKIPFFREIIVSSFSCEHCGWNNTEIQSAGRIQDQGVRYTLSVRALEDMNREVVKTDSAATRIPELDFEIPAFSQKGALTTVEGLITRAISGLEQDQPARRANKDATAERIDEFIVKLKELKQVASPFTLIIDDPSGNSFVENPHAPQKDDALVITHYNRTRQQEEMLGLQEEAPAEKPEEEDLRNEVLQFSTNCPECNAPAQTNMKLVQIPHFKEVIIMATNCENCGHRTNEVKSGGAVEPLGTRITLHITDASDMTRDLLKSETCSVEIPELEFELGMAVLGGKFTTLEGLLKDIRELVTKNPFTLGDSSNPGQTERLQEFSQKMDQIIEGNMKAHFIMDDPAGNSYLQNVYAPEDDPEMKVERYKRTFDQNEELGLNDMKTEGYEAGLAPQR
UniProt O95218: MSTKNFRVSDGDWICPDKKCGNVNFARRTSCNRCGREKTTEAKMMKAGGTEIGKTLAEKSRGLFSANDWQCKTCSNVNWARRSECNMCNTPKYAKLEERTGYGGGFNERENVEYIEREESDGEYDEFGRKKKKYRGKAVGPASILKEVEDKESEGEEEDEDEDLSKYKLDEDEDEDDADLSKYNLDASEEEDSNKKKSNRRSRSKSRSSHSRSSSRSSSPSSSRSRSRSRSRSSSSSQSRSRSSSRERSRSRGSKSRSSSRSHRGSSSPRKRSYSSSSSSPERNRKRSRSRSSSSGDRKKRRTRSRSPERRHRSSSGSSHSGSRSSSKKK
UniProt O43264: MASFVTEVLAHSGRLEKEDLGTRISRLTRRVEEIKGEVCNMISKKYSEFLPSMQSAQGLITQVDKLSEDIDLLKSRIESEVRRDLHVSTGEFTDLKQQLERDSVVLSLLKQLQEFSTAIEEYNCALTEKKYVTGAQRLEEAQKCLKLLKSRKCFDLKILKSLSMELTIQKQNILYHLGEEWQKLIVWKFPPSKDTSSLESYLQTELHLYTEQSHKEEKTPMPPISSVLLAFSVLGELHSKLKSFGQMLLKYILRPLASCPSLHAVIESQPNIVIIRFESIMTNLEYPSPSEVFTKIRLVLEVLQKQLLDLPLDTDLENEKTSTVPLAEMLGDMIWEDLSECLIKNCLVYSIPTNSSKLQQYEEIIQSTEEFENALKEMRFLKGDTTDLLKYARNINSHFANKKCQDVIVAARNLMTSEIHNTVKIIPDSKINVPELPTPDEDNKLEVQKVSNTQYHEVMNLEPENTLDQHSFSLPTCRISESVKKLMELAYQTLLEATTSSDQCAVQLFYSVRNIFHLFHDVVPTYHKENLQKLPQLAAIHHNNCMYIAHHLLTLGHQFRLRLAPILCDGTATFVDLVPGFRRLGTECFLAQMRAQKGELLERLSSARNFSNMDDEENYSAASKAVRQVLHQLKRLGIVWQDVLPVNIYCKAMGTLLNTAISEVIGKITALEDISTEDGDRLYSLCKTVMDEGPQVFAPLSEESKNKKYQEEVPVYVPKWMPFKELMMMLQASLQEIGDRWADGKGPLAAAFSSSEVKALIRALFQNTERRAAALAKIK
UniProt Q6ZMS4: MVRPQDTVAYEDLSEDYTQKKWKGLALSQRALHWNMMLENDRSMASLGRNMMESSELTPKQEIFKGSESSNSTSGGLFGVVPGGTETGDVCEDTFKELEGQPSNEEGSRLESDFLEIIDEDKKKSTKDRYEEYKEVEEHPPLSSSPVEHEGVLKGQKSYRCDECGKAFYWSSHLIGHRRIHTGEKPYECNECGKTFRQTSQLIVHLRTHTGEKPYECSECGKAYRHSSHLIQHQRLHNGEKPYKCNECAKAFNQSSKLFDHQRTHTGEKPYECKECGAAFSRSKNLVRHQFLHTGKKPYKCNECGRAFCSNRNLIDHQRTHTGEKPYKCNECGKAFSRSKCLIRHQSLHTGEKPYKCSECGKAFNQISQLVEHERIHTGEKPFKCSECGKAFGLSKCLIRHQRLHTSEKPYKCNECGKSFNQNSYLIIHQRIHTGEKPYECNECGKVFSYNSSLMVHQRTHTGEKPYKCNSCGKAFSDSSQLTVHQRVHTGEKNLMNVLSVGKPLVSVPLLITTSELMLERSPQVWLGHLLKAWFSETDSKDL
UniProt Q9P2E3: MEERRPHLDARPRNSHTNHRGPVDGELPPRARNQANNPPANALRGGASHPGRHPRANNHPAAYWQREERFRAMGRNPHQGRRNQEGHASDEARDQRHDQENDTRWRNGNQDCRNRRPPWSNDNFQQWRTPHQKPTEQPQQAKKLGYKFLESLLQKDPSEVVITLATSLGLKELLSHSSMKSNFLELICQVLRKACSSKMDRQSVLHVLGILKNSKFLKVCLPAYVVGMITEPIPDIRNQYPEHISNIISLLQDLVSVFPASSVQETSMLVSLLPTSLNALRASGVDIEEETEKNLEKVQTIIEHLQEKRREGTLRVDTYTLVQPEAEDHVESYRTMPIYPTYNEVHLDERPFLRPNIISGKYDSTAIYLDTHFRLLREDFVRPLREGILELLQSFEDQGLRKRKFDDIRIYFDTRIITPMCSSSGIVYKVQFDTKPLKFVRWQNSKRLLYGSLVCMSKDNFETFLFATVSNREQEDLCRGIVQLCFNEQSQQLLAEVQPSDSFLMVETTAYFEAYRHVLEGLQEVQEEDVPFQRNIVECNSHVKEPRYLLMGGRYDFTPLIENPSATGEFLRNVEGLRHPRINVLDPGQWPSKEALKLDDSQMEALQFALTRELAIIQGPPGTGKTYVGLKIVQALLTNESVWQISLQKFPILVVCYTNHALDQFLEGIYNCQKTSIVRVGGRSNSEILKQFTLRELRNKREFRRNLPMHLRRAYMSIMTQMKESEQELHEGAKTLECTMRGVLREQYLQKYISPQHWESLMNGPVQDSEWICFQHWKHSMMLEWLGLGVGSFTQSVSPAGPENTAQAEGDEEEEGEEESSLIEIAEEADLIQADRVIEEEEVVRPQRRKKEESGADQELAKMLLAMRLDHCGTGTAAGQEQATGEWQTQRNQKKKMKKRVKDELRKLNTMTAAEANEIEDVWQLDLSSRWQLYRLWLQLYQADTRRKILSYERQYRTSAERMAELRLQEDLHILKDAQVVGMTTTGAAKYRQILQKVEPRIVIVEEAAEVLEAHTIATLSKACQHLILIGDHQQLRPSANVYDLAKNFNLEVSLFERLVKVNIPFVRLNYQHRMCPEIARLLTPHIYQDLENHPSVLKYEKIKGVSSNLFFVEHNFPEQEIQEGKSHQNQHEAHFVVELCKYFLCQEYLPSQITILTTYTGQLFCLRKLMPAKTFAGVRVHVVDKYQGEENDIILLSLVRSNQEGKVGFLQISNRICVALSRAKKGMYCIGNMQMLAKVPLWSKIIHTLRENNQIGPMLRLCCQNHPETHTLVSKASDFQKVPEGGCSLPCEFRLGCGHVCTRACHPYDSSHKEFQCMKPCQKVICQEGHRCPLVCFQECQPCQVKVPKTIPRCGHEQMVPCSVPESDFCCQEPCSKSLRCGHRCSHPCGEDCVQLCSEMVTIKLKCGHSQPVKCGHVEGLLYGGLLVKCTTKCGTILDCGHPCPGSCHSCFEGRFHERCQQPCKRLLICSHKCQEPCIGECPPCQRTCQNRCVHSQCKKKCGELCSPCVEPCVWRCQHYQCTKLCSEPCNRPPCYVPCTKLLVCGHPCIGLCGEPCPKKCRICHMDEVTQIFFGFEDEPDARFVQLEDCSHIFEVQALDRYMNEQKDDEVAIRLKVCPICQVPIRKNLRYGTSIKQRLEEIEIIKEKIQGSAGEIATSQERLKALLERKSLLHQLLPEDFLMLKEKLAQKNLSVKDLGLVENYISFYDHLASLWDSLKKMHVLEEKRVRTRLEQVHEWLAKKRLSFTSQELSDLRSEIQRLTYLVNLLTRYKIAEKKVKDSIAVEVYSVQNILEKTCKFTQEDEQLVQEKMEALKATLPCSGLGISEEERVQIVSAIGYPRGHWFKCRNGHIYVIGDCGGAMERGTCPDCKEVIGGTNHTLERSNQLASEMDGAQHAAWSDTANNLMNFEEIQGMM
UniProt Q16670: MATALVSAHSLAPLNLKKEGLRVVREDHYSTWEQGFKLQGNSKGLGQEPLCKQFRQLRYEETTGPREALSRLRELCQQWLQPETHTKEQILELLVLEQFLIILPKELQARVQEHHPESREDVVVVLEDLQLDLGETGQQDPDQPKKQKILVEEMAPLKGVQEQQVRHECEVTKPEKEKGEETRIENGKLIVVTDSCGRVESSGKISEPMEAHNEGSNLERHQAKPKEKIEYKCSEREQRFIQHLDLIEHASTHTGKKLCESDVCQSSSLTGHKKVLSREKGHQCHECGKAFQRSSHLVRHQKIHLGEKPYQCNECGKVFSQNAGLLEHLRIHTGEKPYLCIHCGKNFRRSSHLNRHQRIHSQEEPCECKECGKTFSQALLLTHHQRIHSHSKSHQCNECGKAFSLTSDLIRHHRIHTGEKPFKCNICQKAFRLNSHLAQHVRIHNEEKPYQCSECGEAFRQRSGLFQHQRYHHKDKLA
UniProt Q19AV6: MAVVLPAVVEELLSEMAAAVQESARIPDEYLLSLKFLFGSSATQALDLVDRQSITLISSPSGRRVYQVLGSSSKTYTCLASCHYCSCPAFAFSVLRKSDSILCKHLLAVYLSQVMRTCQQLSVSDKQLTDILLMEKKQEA

ZNF800 = ZNF800 (UniProt Q2TB10)
How it was run: as §1

ZNF830 = ZNF830 (UniProt Q96NB3)
How it was run: as §1

ZNHIT1 = ZNHIT1 (UniProt O43257)
How it was run: as §1

ZNHIT3 = ZNHIT3 (UniProt Q15649)
How it was run: as §1

ZNHIT6 = ZNHIT6 (UniProt Q9NWK9)
How it was run: as §1

ZNRD1 = ZNRD1 (UniProt Q9P1U0)
How it was run: as §1

ZNRD2 [1] = molecular target: ZNRD2 (UniProt O60232)
How it was run: as §1

ZNRF1 isoform 2 = ZNRF1 isoform 2 (UniProt Q8ND25)
How it was run: as §1

ZNRF2 = ZNRF2 (UniProt Q8NHG8)
How it was run: as §1

ZPR1 = ZPR1 (UniProt O75312)
How it was run: as §1

ZRANB2 = ZRANB2 (UniProt O95218)
How it was run: as §1

ZW10 = ZW10 (UniProt O43264)
How it was run: as §1

ZSCAN21 = ZSCAN21 (UniProt Q9Y5A6)
How it was run: as §1

ZNF852 = ZNF852 (UniProt Q6ZMS4)
How it was run: as §1

ZNFX1 = ZNFX1 (UniProt Q9P2E3)
How it was run: as §1

ZNRD2 [2] = molecular target: ZNRD2 (UniProt G3V1B8)
How it was run: as §1

ZSCAN26 = ZSCAN26 (UniProt Q16670)
How it was run: as §1

ZSWIM7 = ZSWIM7 (UniProt Q19AV6)
How it was run: as §1

Measured: log2 fold change

CNc1nc(-c2ccc3c(N)n[nH]c3c2)cc(N2C[C@@H](C(=O)NC3CCCCC3)CC[C@H]2C)n1
inactive: ZNF787 = 0.054 | ZNF800 = 0.091 | ZNF830 = -0.094 | ZNHIT1 = 0.073 | ZNHIT3 = -0.045 | ZNHIT6 = 0.131 | ZNRD1 = -0.219 | ZNRD2 [1] 0.028 | ZNRF1 isoform 2 = -0.112 | ZNRF2 = -0.02 | ZPR1 = -0.038 | ZRANB2 = -0.066 | ZW10 = 0.009

Cn1cc(-c2ccc3c(c2)CCN3C(=O)Cc2cccc(C(F)(F)F)c2)c2c(N)ncnc21
inactive: ZNF787 = -0.35 | ZNF800 = -0.201 | ZNF830 = 0.003 | ZNHIT3 = 0.028 | ZNHIT6 = 0.021 | ZNRD1 = -0.099 | ZNRD2 [1] 0.075 | ZNRF1 isoform 2 = 0.1 | ZNRF2 = 0.111 | ZPR1 = 0.016 | ZRANB2 = -0.013 | ZSCAN21 = 0.052 | ZW10 = -0.076

CC[C@H](C)[C@H](NC(=O)[C@H]([C@@H](C)CC)N(C)C(C)=O)C(=O)N[C@H](C(=O)N[C@@H](CC(C)C)C(=O)[C@@]1(C)CO1)[C@@H](C)O [epoxomicin]
inactive: ZNF787 = -0.134 | ZNF830 = 0.091 | ZNF852 = -0.098 | ZNFX1 = -0.099 | ZNHIT1 = 0.098 | ZNHIT3 = 0.159 | ZNRD1 = 0.121 | ZNRD2 [2] 0.199 | ZNRD2 [1] 0.25 | ZNRF2 = -0.03 | ZPR1 = 0.012 | ZRANB2 = -0.016 | ZSCAN21 = -0.163 | ZW10 = -0.046

C[C@@H]1COCCN1c1cc(C2(S(C)(=O)=O)CC2)nc(-c2cccc3[nH]ccc23)n1
inactive: ZNF787 = -0.144 | ZNF830 = 0.027 | ZNF852 = -0.126 | ZNFX1 = 0.578 | ZNHIT1 = -0.084 | ZNHIT3 = -0.002 | ZNRD1 = -0.172 | ZNRD2 [2] 0.08 | ZNRD2 [1] 0.094 | ZNRF2 = -0.012 | ZPR1 = -0.002 | ZRANB2 = 0.001 | ZSCAN21 = -0.281 | ZW10 = -0.029

CN1CCc2c(c3ccccc3n2Cc2ccc(C(=O)NO)cc2)C1 [Tubastatin A]
inactive: ZNF787 = 0.059 | ZNF800 = 0.199 | ZNF830 = 0.035 | ZNHIT3 = 0.059 | ZNHIT6 = 0.131 | ZNRD1 = -0.11 | ZNRD2 [2] 0.064 | ZNRD2 [1] -0.024 | ZNRF1 isoform 2 = -0.004 | ZNRF2 = 0.018 | ZPR1 = -0.007 | ZRANB2 = -0.032 | ZSCAN26 = 0.043 | ZSWIM7 = -0.032 | ZW10 = 0.031

Two entries drawn at random from those above, as already listed:
CN1CCc2c(c3ccccc3n2Cc2ccc(C(=O)NO)cc2)C1 [Tubastatin A]
inactive: ZNF787 = 0.059 | ZNF800 = 0.199 | ZNF830 = 0.035 | ZNHIT3 = 0.059 | ZNHIT6 = 0.131 | ZNRD1 = -0.11 | ZNRD2 [2] 0.064 | ZNRD2 [1] -0.024 | ZNRF1 isoform 2 = -0.004 | ZNRF2 = 0.018 | ZPR1 = -0.007 | ZRANB2 = -0.032 | ZSCAN26 = 0.043 | ZSWIM7 = -0.032 | ZW10 = 0.031

C[C@@H]1COCCN1c1cc(C2(S(C)(=O)=O)CC2)nc(-c2cccc3[nH]ccc23)n1
inactive: ZNF787 = -0.144 | ZNF830 = 0.027 | ZNF852 = -0.126 | ZNFX1 = 0.578 | ZNHIT1 = -0.084 | ZNHIT3 = -0.002 | ZNRD1 = -0.172 | ZNRD2 [2] 0.08 | ZNRD2 [1] 0.094 | ZNRF2 = -0.012 | ZPR1 = -0.002 | ZRANB2 = 0.001 | ZSCAN21 = -0.281 | ZW10 = -0.029

Remaining list, next part

NC(=O)c1ccc2nc(-c3ccc(Oc4ccc(Cl)cc4)cc3)[nH]c2c1
inactive: ZNF787 = 0 | ZNF830 = 0.008 | ZNF852 = 0.023 | ZNHIT1 = 0.13 | ZNHIT3 = 0.042 | ZNHIT6 = 0.009 | ZNRD1 = -0.022 | ZNRD2 [2] -0.012 | ZNRD2 [1] 0.023 | ZNRF1 isoform 2 = 0.087 | ZNRF2 = 0.029 | ZPR1 = -0.026 | ZRANB2 = -0.015 | ZSWIM7 = -0.254 | ZW10 = -0.005

CN1CCN(CCOc2cc(OC3CCOCC3)c3c(Nc4c(Cl)ccc5c4OCO5)ncnc3c2)CC1 [saracatinib]
inactive: ZNF787 = -0.168 | ZNF800 = -0.229 | ZNF830 = 0.057 | ZNHIT1 = -0.053 | ZNHIT3 = 0.07 | ZNHIT6 = 0.14 | ZNRD1 = 0.059 | ZNRD2 [1] -0.026 | ZNRF1 isoform 2 = -0.022 | ZNRF2 = 0.051 | ZPR1 = 0.021 | ZRANB2 = 0.044 | ZW10 = -0.031

C#Cc1cccc(Nc2ncnc3cc(OCCOC)c(OCCOC)cc23)c1 [erlotinib]
inactive: ZNF787 = -0.145 | ZNF830 = 0.008 | ZNF852 = -0.051 | ZNHIT1 = 0.086 | ZNHIT3 = -0.021 | ZNHIT6 = -0.02 | ZNRD1 = 0.049 | ZNRD2 [2] 0.153 | ZNRD2 [1] -0.039 | ZNRF1 isoform 2 = -0.09 | ZNRF2 = 0.052 | ZPR1 = -0.01 | ZRANB2 = 0.005 | ZSWIM7 = 0.02 | ZW10 = 0.016

Cc1ccc2c(=O)c3ccccc3n(CCCN)c2c1C
active: ZRANB2 = -0.399
inactive: ZNF787 = -0.024 | ZNF800 = -0.651 | ZNF830 = -0.004 | ZNHIT3 = -0.124 | ZNHIT6 = 0.034 | ZNRD1 = -0.185 | ZNRD2 [2] 0.099 | ZNRD2 [1] 0.164 | ZNRF1 isoform 2 = 0.053 | ZNRF2 = 0.011 | ZPR1 = 0.016 | ZSCAN26 = -0.505 | ZSWIM7 = -0.125 | ZW10 = 0.013

O=C1NC(=O)C(c2cnc3ccccn23)=C1c1cn2c3c(cc(F)cc13)CN(C(=O)N1CCCCC1)CC2
inactive: ZNF787 = 0.086 | ZNF830 = -0.013 | ZNF852 = 0.125 | ZNFX1 = 0.418 | ZNHIT1 = 0.037 | ZNHIT3 = -0.046 | ZNRD1 = -0.032 | ZNRD2 [2] -0.286 | ZNRD2 [1] -0.053 | ZNRF2 = -0.162 | ZPR1 = -0.045 | ZRANB2 = 0.12 | ZSCAN21 = 0.07 | ZW10 = 0.054

Cc1cc(Nc2cc(N3CCN(C)CC3)nc(Sc3ccc(NC(=O)C4CC4)cc3)n2)n[nH]1 [tozasertib]
inactive: ZNF787 = 0.023 | ZNF800 = -0.04 | ZNF830 = -0.018 | ZNHIT3 = 0.041 | ZNHIT6 = 0.007 | ZNRD1 = 0.028 | ZNRD2 [2] 0.01 | ZNRD2 [1] 0.05 | ZNRF1 isoform 2 = 0.16 | ZNRF2 = 0.074 | ZPR1 = 0.051 | ZSCAN26 = -0.031 | ZSWIM7 = 0.225

Cc1nc(Nc2ncc(C(=O)Nc3c(C)cccc3Cl)s2)cc(N2CCN(CCO)CC2)n1 [dasatinib]
inactive: ZNF787 = 0.108 | ZNF800 = 0.065 | ZNF830 = 0.006 | ZNHIT1 = -0.062 | ZNHIT3 = -0.016 | ZNHIT6 = 0.06 | ZNRD1 = 0.29 | ZNRD2 [1] 0.058 | ZNRF1 isoform 2 = -0.09 | ZNRF2 = -0.035 | ZPR1 = -0.004 | ZRANB2 = 0.078 | ZW10 = -0.124

CC(C)c1cnn2c(NCc3ccccc3)cc(NCCCCCCN)nc12
inactive: ZNF787 = 0.06 | ZNF830 = 0.06 | ZNF852 = -0.01 | ZNHIT1 = -0.123 | ZNHIT3 = 0.077 | ZNHIT6 = 0.078 | ZNRD1 = 0.12 | ZNRD2 [2] 0.229 | ZNRD2 [1] 0.045 | ZNRF1 isoform 2 = 0.018 | ZNRF2 = -0.115 | ZPR1 = 0.03 | ZRANB2 = 0.014 | ZSWIM7 = 0.067 | ZW10 = -0.213

CCCCN(Cc1ccc(C(=O)NO)cc1)C(=O)Nc1ccccc1 [Nexturastat A]
inactive: ZNF787 = 0.11 | ZNF830 = -0.045 | ZNF852 = 0.244 | ZNFX1 = 0.213 | ZNHIT1 = 0.134 | ZNHIT3 = 0.126 | ZNRD1 = -0.049 | ZNRD2 [2] 0.143 | ZNRD2 [1] 0.002 | ZNRF2 = 0.108 | ZPR1 = -0.007 | ZRANB2 = -0.057 | ZSCAN21 = 0.163 | ZW10 = 0.093

C[C@H](Nc1ncnc2nc[nH]c12)c1cc2cccc(Cl)c2c(=O)n1-c1ccccc1 [duvelisib]
inactive: ZNF787 = -0.352 | ZNF800 = 0.041 | ZNF830 = 0.021 | ZNHIT1 = -0.022 | ZNHIT3 = 0.055 | ZNHIT6 = -0.149 | ZNRD1 = -0.009 | ZNRD2 [1] 0.162 | ZNRF1 isoform 2 = 0.073 | ZNRF2 = 0.086 | ZPR1 = 0.001

NC1(Cc2ccc(Cl)cc2)CCN(c2ncnc3[nH]ccc23)CC1
inactive: ZNF787 = -0.166 | ZNF800 = -0.19 | ZNF830 = 0.054 | ZNHIT3 = -0.008 | ZNHIT6 = -0.047 | ZNRD1 = 0.118 | ZNRD2 [2] 0.037 | ZNRD2 [1] -0.04 | ZNRF1 isoform 2 = -0.008 | ZNRF2 = -0.028 | ZPR1 = -0.016 | ZRANB2 = 0.014 | ZSCAN26 = -0.093 | ZSWIM7 = 0.263 | ZW10 = -0.062

CO[C@H]1C[C@@H]2CC[C@@H](C)[C@@](O)(O2)C(=O)C(=O)N2CCCC[C@H]2C(=O)O[C@H]([C@H](C)C[C@@H]2CC[C@H](n3cnnn3)[C@H](OC)C2)CC(=O)[C@H](C)/C=C(\C)[C@@H](O)[C@@H](OC)C(=O)[C@H](C)C[C@H](C)/C=C/C=C/C=C/1C [zotarolimus]
inactive: ZNF787 = 0.019 | ZNF800 = 0.175 | ZNF830 = -0.061 | ZNHIT3 = -0.054 | ZNHIT6 = -0.147 | ZNRD1 = -0.128 | ZNRD2 [1] 0.006 | ZNRF1 isoform 2 = -0.009 | ZNRF2 = -0.055 | ZPR1 = 0.033 | ZRANB2 = -0.011 | ZSCAN21 = -0.071 | ZW10 = 0.023

Fc1ccc(Cl)cc1-c1nc(Nc2ccncc2)c2nccnc2n1
inactive: ZNF787 = -0.233 | ZNF830 = -0.002 | ZNF852 = -0.195 | ZNFX1 = -0.259 | ZNHIT1 = 0.015 | ZNHIT3 = -0.062 | ZNRD1 = 0.079 | ZNRD2 [2] 0.162 | ZNRD2 [1] 0.227 | ZNRF2 = 0.018 | ZPR1 = 0.024 | ZRANB2 = 0.041 | ZSCAN21 = -0.439 | ZW10 = -0.04

CN1CC[C@H](c2c(O)cc(O)c3c(=O)cc(-c4ccccc4Cl)oc23)[C@H](O)C1 [alvocidib]
inactive: ZNF787 = 0.129 | ZNF800 = -0.114 | ZNF830 = -0.019 | ZNHIT3 = 0.015 | ZNHIT6 = -0.023 | ZNRD1 = 0.03 | ZNRD2 [1] -0.034 | ZNRF1 isoform 2 = -0.085 | ZNRF2 = -0.02 | ZPR1 = -0.077 | ZSCAN21 = 0
